Test results reported in PubChem BioAssay AID330 (DTP/NCI, 2004).
The list is a part of this screen's results and no random one: it is rich in T/C values a quarter to a half above the control, in often repeated tests (any T/C) and in doses without a T/C. Further doses and runs are listed elsewhere. T/C is the treated group as % of the vehicle group. Some entries give survivors of the animals treated and no T/C: the source files T/C as zero there, which appears to mark a toxic dose or a test without result, not a measured value. Some doses without a T/C left all or most animals alive at the check, yet need not have been tolerated: survival well below the control is almost never listed, so the zero probably covers shortened survival too. Counts of survivors are from the toxicity check (mostly the fifth day) where no day follows; animals may have died later. Schedules are NCI's codes, read here as Q, the interval in days (D) or hours (H), X, the number of doses. Some entries hold several experiments; the results are listed from low to high. For survival time, the PubChem record calls one and a half times the control and up active, and a quarter to a half above the control has no call in these data; cut-offs in other NCI protocols can differ. Some T/C values carry the count of animals alive at the toxicity check (mostly the fifth day); where none is given, no animal had died by that day.

System: P388 leukemia ip, CD2F1 mice, survival T/C
Experiment: NCI In Vivo Anticancer Drug Screen. Data for tumor model P388 Leukemia (intraperitoneal) in CD2F1 (CDF1) mice
Conditions: T/C endpoint: median survival time, higher T/C = longer survival
[1] = dose: 25.0 mg/kg/injection, schedule: Q01DX009 (ip), vehicle: water
[2] = dose: 50.0 mg/kg/injection, schedule: Q01DX009 (ip), vehicle: water
[3] = dose: 100.0 mg/kg/injection, schedule: Q01DX009 (ip), vehicle: water
[4] = dose: 200.0 mg/kg/injection, schedule: Q01DX009 (ip), vehicle: water
[5] = dose: 400.0 mg/kg/injection, schedule: Q01DX009 (ip), vehicle: water
[6] = dose: 200.0 mg/kg/injection, schedule: Q01DX009 (ip), vehicle: saline with Tween-80
[7] = dose: 240.0 mg/kg/injection, schedule: Q01DX005 (ip), vehicle: saline with Tween-80
[8] = dose: 50.0 mg/kg/injection, schedule: Q01DX005 (ip), vehicle: saline with Tween-80
[9] = dose: 100.0 mg/kg/injection, schedule: Q01DX005 (ip), vehicle: saline with Tween-80
[10] = dose: 200.0 mg/kg/injection, schedule: Q01DX005 (ip), vehicle: saline with Tween-80

With `O=C(O)/C=N/NS(=O)(=O)c1cccc(S(=O)(=O)N/N=C/C(=O)O)c1` the T/C (dose: 12.5 mg/kg/injection, schedule: Q01DX009 (ip), vehicle: other) was 127 % of control, the T/C (dose: 25.0 mg/kg/injection, schedule: Q01DX009 (ip), vehicle: other) was 133 % of control and the T/C [1] was 130 % of control. For the same compound, the T/C (dose: 50.0 mg/kg/injection, schedule: Q01DX009 (ip), vehicle: other) was 143 % of control, the T/C [2] was 128 % of control and the survivor count (dose: 100.0 mg/kg/injection, schedule: Q01DX009 (ip), vehicle: other) was 6 of 6. The survivor count [3] was 5 of 6, the survivor count (dose: 200.0 mg/kg/injection, schedule: Q01DX009 (ip), vehicle: other) was 5 of 6 and the survivor count [4] was 3 of 6. For the same compound, the survivor count [5] was 0 of 6.
In the case of `CN(C)C1CCc2ccccc2C1OC(=O)c1ccccc1` (stereo not drawn), the survivor count [6] was 3 of 6.
`C/C(=N\NC(N)=Nc1ccccc1)c1ccc(Cl)c(Cl)c1` was tested, and the survivor count (dose: 200.0 mg/kg/injection, schedule: Q04DX002 (ip), vehicle: saline with Tween-80) was 1 of 6 and the survivor count (dose: 400.0 mg/kg/injection, schedule: Q04DX002 (ip), vehicle: saline with Tween-80) was 0 of 6.
For `O=C1C=CC(=Nc2ccc3[nH]c4ccccc4c3c2)C=C1`, the survivor count (dose: 400.0 mg/kg/injection, schedule: Q01DX005 (ip), vehicle: saline with Tween-80) was 2 of 6.
`CCCCNC(C)(C)C(SS)c1ccc(C(F)(F)F)cc1` (stereo not drawn) was tested, and the survivor count (dose: 25.0 mg/kg/injection, schedule: Q04DX003 (ip), vehicle: other) was 3 of 6.
In the case of `CN(C)CC1=Nc2cccc3cccc(c23)N1`, the survivor count [7] was 0 of 6.
`CC(=O)NC#N.CCN(CC)CC.[CH-]1CCCCC1.[CH-]1CCCCC1.[CH-]1CCCCC1.[Cl-].[Sn+4]` was tested, and the survivor count (dose: 12.5 mg/kg/injection, schedule: Q01DX005 (ip), vehicle: saline with Tween-80) was 0 of 6, the survivor count [8] was 0 of 6 and the survivor count [9] was 0 of 6. The survivor count [10] was 0 of 6.
For `CCN(CC)CCCNc1cc(OC)c(Nc2ccccc2)c2cccnc12`, the survivor count [8] was 0 of 5, the survivor count [9] was 0 of 5 and the survivor count [10] was 0 of 5.
For `NCCC(=O)OC1CCCc2c(O)c3c(c(O)c21)C(=O)c1ccccc1C3=O` (stereo not drawn), the survivor count [3] was 3 of 6.
In the case of `Cc1coc2c1C1OC(=O)C3(C/C=C\C(C)C2)OC13` (stereo not drawn), the survivor count (dose: 45000.0 micrograms/kg/injection, schedule: Q01DX005 (ip), vehicle: Klucel (hydroxypropylcellulose) (HPC)) was 6 of 6.
With `CC[C@@H]1CN2CCc3c([nH]c4ccccc34)[C@@](C(=O)OC)(c3cc4c(cc3OC)N(C)[C@H]3[C@@](O)(C(=O)OC)[C@H](OC(C)=O)[C@]5(CC)C=CCN6CC[C@]43[C@@H]65)C[C@H](C2)C1=O` the T/C (dose: 8.0 mg/kg/injection, schedule: Q01DX001 (ip), vehicle: water) was 126 % of control, the T/C (dose: 16.0 mg/kg/injection, schedule: Q01DX001 (ip), vehicle: water) was 126 % of control and the T/C (dose: 32.0 mg/kg/injection, schedule: Q01DX001 (ip), vehicle: distilled water + Tween-80) was 128 % of control [5 of 6 alive]. For the same compound, the T/C (dose: 32.0 mg/kg/injection, schedule: Q01DX001 (ip), vehicle: water) was 145 % of control, the survivor count (dose: 64.0 mg/kg/injection, schedule: Q01DX001 (ip), vehicle: distilled water + Tween-80) was 0 of 6 and the survivor count (dose: 128.0 mg/kg/injection, schedule: Q01DX001 (ip), vehicle: distilled water + Tween-80) was 0 of 6.
For `N#Cc1ccc(N(O)C(=O)c2ccccc2)cc1`, the survivor count (dose: 100.0 mg/kg/injection, schedule: Q01DX009 (ip), vehicle: saline with Tween-80) was 2 of 6 and the survivor count [6] was 0 of 6.
In the case of `O=C(SCc1oc2ccccc2c1O)c1ccccc1`, the survivor count (dose: 50.0 mg/kg/injection, schedule: Q01DX009 (ip), vehicle: saline with Tween-80) was 5 of 6 and the survivor count [6] was 0 of 6.
In the case of `O=C1C=CC(=Nc2cc(Br)c(O)c(Br)c2)C=C1`, the survivor count (dose: 100.0 mg/kg/injection, schedule: Q01DX005 (ip), vehicle: saline) was 0 of 5 and the survivor count (dose: 200.0 mg/kg/injection, schedule: Q01DX005 (ip), vehicle: saline) was 0 of 5.
With `Cc1ccc(S(=O)(=O)NN=C2C(C)C(c3ccccc3)NC(c3ccccc3)C2C)cc1` (stereo not drawn) the survivor count (dose: 50.0 mg/kg/injection, schedule: Q01DX001 (ip), vehicle: Klucel (hydroxypropylcellulose) (HPC)) was 6 of 6 and the survivor count (dose: 100.0 mg/kg/injection, schedule: Q01DX001 (ip), vehicle: Klucel (hydroxypropylcellulose) (HPC)) was 6 of 6.
For `C=CCC(C(C)=O)C(C)=NCCN=C(C)C(CC=C)C(C)=O.[Cu]` (stereo not drawn), the survivor count (dose: 25.0 mg/kg/injection, schedule: Q01DX005 (ip), vehicle: saline with Tween-80) was 3 of 5, the survivor count [8] was 0 of 5 and the survivor count [9] was 0 of 5. For the same compound, the survivor count [10] was 0 of 5.
With `CC1(O)CC[N+](C)(C)CC1c1ccccc1` (stereo not drawn) the survivor count (dose: 200.0 mg/kg/injection, schedule: Q04DX003 (ip), vehicle: saline) was 0 of 6.
`COc1ccc2ncc(COC(=O)NCCCl)c(COC(=O)NCCCl)c2c1` was tested, and the survivor count (dose: 50.0 mg/kg/injection, schedule: Q01DX005 (ip), vehicle: Klucel (hydroxypropylcellulose) (HPC)) was 6 of 6.
`O=C1C=C(Br)C(=O)C(Br)=C1` was tested, and the survivor count (dose: 12.5 mg/kg/injection, schedule: Q01DX009 (ip), vehicle: distilled water + Tween-80) was 3 of 5 and 5 of 6, the survivor count (dose: 25.0 mg/kg/injection, schedule: Q01DX009 (ip), vehicle: distilled water + Tween-80) was 2 of 6 and 2 of 5 and the survivor count (dose: 50.0 mg/kg/injection, schedule: Q01DX009 (ip), vehicle: distilled water + Tween-80) was 0 of 5. The survivor count (dose: 100.0 mg/kg/injection, schedule: Q01DX009 (ip), vehicle: distilled water + Tween-80) was 0 of 5 and the survivor count (dose: 200.0 mg/kg/injection, schedule: Q01DX009 (ip), vehicle: distilled water + Tween-80) was 0 of 5.
With `CC1(C)NC(=O)[C@]2(C[C@@H](OC(=O)c3ccccc3)C=C2C=O)O1` the survivor count [9] was 1 of 6.
In the case of `CCOC(=O)C(Cc1ccc(O)cc1)NC(=O)c1cc2c(cn1)[nH]c1ccccc12` (stereo not drawn), the T/C [7] was 125 % of control.
For `COc1cc2c(cc1OC)NC(=O)C2`, the survivor count (dose: 200.0 mg/kg/injection, schedule: Q04DX003 (ip), vehicle: saline with Tween-80) was 5 of 6 and the survivor count (dose: 400.0 mg/kg/injection, schedule: Q04DX003 (ip), vehicle: saline with Tween-80) was 1 of 6.
For `Nc1ccc[nH]c1=O`, the T/C (dose: 200.0 mg/kg/injection, schedule: Q01DX009 (ip), vehicle: saline) was 125 [5 of 6 alive] and 133 % of control and the survivor count (dose: 400.0 mg/kg/injection, schedule: Q01DX009 (ip), vehicle: saline) was 5 of 6.
For `CCCC(=O)O[C@H]1/C(=C/C(=O)OC)C[C@H]2C[C@H]([C@@H](C)O)OC(=O)C[C@H](O)C[C@@H]3C[C@H](OC(=O)CC(C)C)C(C)(C)[C@](O)(C[C@@H]4C/C(=C\C(=O)OC)C[C@H](/C=C/C(C)(C)[C@]1(O)O2)O4)O3`, the T/C (dose: 0.03 mg/kg/injection, schedule: Q01DX009 (ip), vehicle: saline + alcohol) was 130 % of control.
In the case of `CS(=O)(=O)N/N=C/C(=O)O`, the T/C [1] was 127 and 134 % of control, the T/C [2] was 126 % of control and the survivor count [4] was 3 of 6 and 4 of 6. For the same compound, the survivor count [5] was 0 of 6.
In the case of `OC(c1ccco1)c1nc2ccccc2s1` (stereo not drawn), the survivor count (dose: 120.0 mg/kg/injection, schedule: Q01DX005 (ip), vehicle: Klucel (hydroxypropylcellulose) (HPC)) was 6 of 6 and the survivor count (dose: 240.0 mg/kg/injection, schedule: Q01DX005 (ip), vehicle: Klucel (hydroxypropylcellulose) (HPC)) was 6 of 6.
